Measurements reported in PubChem BioAssay AID652259 (Drosophila RNAi Screening Center, 2013).
Assay: 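Knock-downs that push a Wingless-driven reporter up or down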 (primary screen). Cells: Drosophila clone 8 imaginal disc epithelial cells. Reagents: long dsRNA against Drosophila genes. Challenge: pathway stimulated by co-transfected Wingless expression plasmid. Measured: 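Firefly luciferase from a tcf-site Wingless reporter, measured alongside co-transfected Renilla luciferase that tracks transfection; pathway stimulated by a Wingless plasmid; the firefly-to-Renilla ratio is not deposited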. Direction: firefly reporter light: higher = more Wg reporter light, before normalisation; Renilla control light: higher = more transfected or surviving cells. Rule for the call: 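a knock-down is a candidate when at least two out of four statistical tests show it departing from its plate mean; one test alone signals a weak candidate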. Calls: active = candidate regulator (raises or lowers reporter); inactive = not a candidate.
The deposit covers about 22,000 reagents; shown is a random part of those with a known target gene and a result. Over the whole deposit, 233 (1.1%) got an active call. 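Light values are raw, unnormalised plate reads; the ratio scores behind the reporter calls were not deposited.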 Unmarked entries are inactive. The numbers tell different reagents against one gene apart. Not stated in the record: the amount of reagent, the time to read-out, the dose of the treatment.

Silencing of NTPase resulted in: firefly reporter light, replicate 1 = 8557; Renilla control light, replicate 1 = 3261.
Knock-down of CG18748 came out at: firefly reporter light, replicate 1 = 14345; Renilla control light, replicate 1 = 4214.
After knock-down of Sik2 (Salt-inducible kinase 2), the record shows firefly reporter light, replicate 1 = 16401; Renilla control light, replicate 1 = 14843.
With knock-down of CG15578, the screen gave firefly reporter light, replicate 1 = 19843; Renilla control light, replicate 1 = 9520.
Depletion of CG15449 resulted in: firefly reporter light, replicate 1 = 28147; Renilla control light, replicate 1 = 12608.
After knock-down of IRSp53 (Insulin receptor substrate 53 kDa), the record shows firefly reporter light, replicate 1 = 7875; Renilla control light, replicate 1 = 3077.
Eig71Ee (Ecdysone-induced gene 71Ee) scored firefly reporter light, replicate 1 = 10560; Renilla control light, replicate 1 = 6345.
For mAChR-C (muscarinic Acetylcholine Receptor, C-type), the entry reads firefly reporter light, replicate 1 = 19574; Renilla control light, replicate 1 = 9056.
Depletion of CG31301 came out at: firefly reporter light, replicate 1 = 6.84e5; firefly reporter light, replicate 2 = 6.95e5; Renilla control light, replicate 1 = 2.74e5; Renilla control light, replicate 2 = 2.62e5.
Knock-down of CG14443 resulted in: firefly reporter light, replicate 1 = 17937; Renilla control light, replicate 1 = 8599.
Depletion of Oatp58Dc (Organic anion transporting polypeptide 58Dc) resulted in: firefly reporter light, replicate 1 = 7926; Renilla control light, replicate 1 = 2534.

4 entries from above, set out differently:
{"Gene":"CG15578","reagent":1,"firefly reporter light, replicate 1":19843,"Renilla control light, replicate 1":9520}
{"Gene":"CG15449","reagent":1,"firefly reporter light, replicate 1":28147,"Renilla control light, replicate 1":12608}
{"Gene":"IRSp53 (Insulin receptor substrate 53 kDa)","reagent":1,"firefly reporter light, replicate 1":7875,"Renilla control light, replicate 1":3077}
{"Gene":"Eig71Ee (Ecdysone-induced gene 71Ee)","reagent":1,"firefly reporter light, replicate 1":10560,"Renilla control light, replicate 1":6345}

Further entries follow.
For CG12942 the deposit lists firefly reporter light, replicate 1 = 11014; Renilla control light, replicate 1 = 2759.
Ccp84Ad #1 showed reporter change call, replicate 1 = Wg reporter activity raised (active); firefly reporter light, replicate 1 = 31669; Renilla control light, replicate 1 = 3569.
Silencing of Ccp84Ad #2 gave: firefly reporter light, replicate 1 = 4.01e5; firefly reporter light, replicate 2 = 3.25e5; Renilla control light, replicate 1 = 1.38e5; Renilla control light, replicate 2 = 1.73e5.
CG2794 showed firefly reporter light, replicate 1 = 2923; firefly reporter light, replicate 2 = 6219; Renilla control light, replicate 1 = 1164; Renilla control light, replicate 2 = 2662.
Against shakB (shaking B) #1, the values are firefly reporter light, replicate 1 = 5520; Renilla control light, replicate 1 = 2541.
Silencing of shakB (shaking B) #2 gave: firefly reporter light, replicate 1 = 3888; firefly reporter light, replicate 2 = 8.20e5; Renilla control light, replicate 1 = 2131; Renilla control light, replicate 2 = 4.02e5.
shakB (shaking B) #3 scored firefly reporter light, replicate 1 = 24322; Renilla control light, replicate 1 = 12711.
shakB (shaking B) #4 gave firefly reporter light, replicate 1 = 19687; Renilla control light, replicate 1 = 7483.
Against shakB (shaking B) #5, the entry reads firefly reporter light, replicate 1 = 3.95e5; firefly reporter light, replicate 2 = 3.87e5; Renilla control light, replicate 1 = 1.69e5; Renilla control light, replicate 2 = 1.42e5.
For shakB (shaking B) #6, the values are firefly reporter light, replicate 1 = 4.57e5; firefly reporter light, replicate 2 = 5.55e5; Renilla control light, replicate 1 = 2.22e5; Renilla control light, replicate 2 = 2.62e5.
Silencing of CG17508 resulted in: firefly reporter light, replicate 1 = 3650; Renilla control light, replicate 1 = 2297.
Silencing of CG14313 gave: firefly reporter light, replicate 1 = 8864; Renilla control light, replicate 1 = 2068.
Against B52, the values are firefly reporter light, replicate 1 = 7597; firefly reporter light, replicate 2 = 8.10e5; Renilla control light, replicate 1 = 4554; Renilla control light, replicate 2 = 4.05e5.
Knock-down of CG13123 resulted in: firefly reporter light, replicate 1 = 1946; firefly reporter light, replicate 2 = 5072; Renilla control light, replicate 1 = 696; Renilla control light, replicate 2 = 1989.
